We go through 29 compounds from PubChem BioAssay AID330 (DTP/NCI, 2004).

The assay relates to P388 leukemia ip, CD2F1 mice, survival T/C. Description: NCI In Vivo Anticancer Drug Screen. Data for tumor model P388 Leukemia (intraperitoneal) in CD2F1 (CDF1) mice. The conditions noted are these: T/C endpoint: median survival time, higher T/C = longer survival.
Setting [1] is: dose: 200.0 mg/kg/injection, schedule: Q01DX009 (ip), vehicle: saline.
Where [2] appears, read: dose: 240.0 mg/kg/injection, schedule: Q01DX005 (ip), vehicle: Klucel (hydroxypropylcellulose) (HPC).
The mark [3] stands for this setting: dose: 100.0 mg/kg/injection, schedule: Q01DX009 (ip), vehicle: saline.
The mark [4] stands for this setting: dose: 200.0 mg/kg/injection, schedule: Q01DX005 (ip), vehicle: Klucel (hydroxypropylcellulose) (HPC).
Where [5] appears, read: dose: 200.0 mg/kg/injection, schedule: Q01DX009 (ip), vehicle: saline with Tween-80.
The mark [6] stands for this setting: dose: 50.0 mg/kg/injection, schedule: Q01DX005 (ip), vehicle: saline with Tween-80.
Where [7] appears, read: dose: 100.0 mg/kg/injection, schedule: Q01DX005 (ip), vehicle: saline with Tween-80.
Setting [8] is: dose: 200.0 mg/kg/injection, schedule: Q01DX005 (ip), vehicle: saline with Tween-80.
[9] abbreviates: dose: 100.0 mg/kg/injection, schedule: Q01DX009 (ip), vehicle: saline with Tween-80.
Where [10] appears, read: dose: 120.0 mg/kg/injection, schedule: Q01DX005 (ip), vehicle: saline with Tween-80.
Setting [11] is: dose: 240.0 mg/kg/injection, schedule: Q01DX005 (ip), vehicle: saline with Tween-80.
Where [12] appears, read: dose: 120.0 mg/kg/injection, schedule: Q01DX005 (ip), vehicle: Klucel (hydroxypropylcellulose) (HPC).

The list does not hold the whole screen: it gathers tests that were run many times, whatever their T/C, doses with no T/C, and many T/C values between a quarter and a half above the control. Further doses and runs are listed elsewhere. T/C gives the treated animals as a percentage of the vehicle group. Some doses have a count of surviving animals in place of a T/C: the source holds a T/C of zero for them, seemingly a mark for toxic or unscored doses. Some doses without a T/C left all or most animals alive at the check, yet need not have been tolerated: the source hardly ever lists a survival T/C far under the control, and the zero likely stands for such cases as well. Survivors were counted at the toxicity check, usually on the fifth day, unless a day is given; later deaths do not show. Schedule codes are those of the source, taken here to give the interval after Q, in days (D) or hours (H), and the number of doses after X. Marks such as (2×) stand for listed records that agree. Some entries were tested several times; the results are listed from low to high. Where survival is the endpoint, the PubChem record calls one and a half times the control and up active, and a quarter to a half above the control has no call in these data; cut-offs in other NCI protocols can differ. Some T/C values carry the count of animals alive at the toxicity check (mostly the fifth day); where none is given, no animal had died by that day.

In the case of `O=c1cccc(O)[nH]1`, the survivor count under setting [1] is 2 of 6 and 5 of 6; the survivor count (dose: 400.0 mg/kg/injection, schedule: Q01DX009 (ip), vehicle: saline) is recorded as 0 of 6; the survivor count (dose: 600.0 mg/kg/injection, schedule: Q01DX009 (ip), vehicle: saline) is 0 of 6.

For the compound `CCCN=C(c1ccccc1C=O)c1c2ccccc2cn1CCC`, the survivor count runs as follows: (dose: 60.0 mg/kg/injection, schedule: Q01DX005 (ip), vehicle: saline + Tween-80 + alcohol) 1 of 6; (dose: 120.0 mg/kg/injection, schedule: Q01DX005 (ip), vehicle: saline + Tween-80 + alcohol) 0 of 6; (dose: 240.0 mg/kg/injection, schedule: Q01DX005 (ip), vehicle: saline + Tween-80 + alcohol) 0 of 6.

As for `CCCC(=O)OC1CC2CC(O)CC(=O)OC(C(C)O)CC3C/C(=C\C(=O)OC)C(OC(C)=O)C(O)(O3)C(C)(C)/C=C/C3C/C(=C\C(=O)OC)CC(CC(O)(O2)C1(C)C)O3` (configuration not stated), the T/C was 133 % of control (dose: 0.03 mg/kg/injection, schedule: Q01DX009 (ip), vehicle: saline + alcohol); 135 % of control (dose: 0.05 mg/kg/injection, schedule: Q01DX009 (ip), vehicle: saline + alcohol); 147 % of control (dose: 0.1 mg/kg/injection, schedule: Q01DX009 (ip), vehicle: saline + alcohol).

On to `NCC(=O)c1ccc2ccccc2c1`, for which the survivor count under setting [2] was 0 of 6.

As for `CCCCC(CC)C[N+]1(C)CCOCC1` (configuration not stated), the survivor count is 2 of 6 under setting [3] and 0 of 6 under setting [1].

With `CN1CCCc2cccc(c2)CCC1`, the survivor count was 0 of 6 (dose: 100.0 mg/kg/injection, schedule: Q01DX005 (ip), vehicle: Klucel (hydroxypropylcellulose) (HPC)) and 0 of 6 under setting [4].

As to `CCCCCCCCCCCCCCCCOc1ccc(/C=N/Nc2ccccc2)cc1OC`, the survivor count under setting [5] is listed as 6 of 6.

For the compound `c1ccc2c(c1)OCc1nccn1-2`, the survivor count under setting [2] is listed as 1 of 6.

On to `O=Nc1c(O)c(Cl)cc2ccccc12`, for which the survivor count is 3 of 5 (dose: 12.5 mg/kg/injection, schedule: Q01DX005 (ip), vehicle: saline with Tween-80); 0 of 5 under setting [6]; 0 of 5 under setting [7]; 0 of 5 under setting [8].

As for `[Cl][Sn]1([Cl])[CH2]CCCCCC[CH2][Sn]([Cl])([Cl])[CH2]CCCCCC[CH2]1`, under setting [8], the survivor count is listed as 6 of 6.

Consider `COC(=O)c1[nH]c(=O)c2cccnc2c1O`, for which the survivor count under setting [5] is given as 3 of 6.

For the compound `CN[C@H]1CC[C@]23C[C@]24CC[C@]2(C)[C@@H]([C@H](C)N(C)C)CC[C@@]2(C)[C@@H]4CC[C@H]3C1(C)C`, the survivor count under setting [9] is 4 of 6.

On to `CCCCC(CCCCCC(CCCC)C1NCCc2cc(OC)c(OC)cc21)C1NCCc2cc(OC)c(OC)cc21` (configuration not stated), for which the survivor count is reported as 2 of 5 under setting [6], 0 of 5 under setting [7] and 0 of 5 under setting [8].

For the compound `Cc1cc[n+](C2=C(Nc3ccc(Cl)cc3C)C(=O)c3ccccc3C2=O)cc1`, the survivor count runs as follows: under setting [10], 0 of 6; under setting [11], 0 of 6.

On to `CN1CCN(CC(O)COc2c3ccccc3nc3ccccc23)CC1` (configuration not stated), for which the survivor count under setting [8] was 2 of 6.

`O=C1C(N2CC2)=C(N2CC2)C(=O)C(N2CC2)=C1N1CC1`: the survivor count is on record as 5 of 6 (dose: 0.5 mg/kg/injection, schedule: Q04DX003 (ip), vehicle: saline with Tween-80); 6 of 6 (dose: 1.0 mg/kg/injection, schedule: Q04DX003 (ip), vehicle: saline with Tween-80); 2 of 6 (dose: 2.0 mg/kg/injection, schedule: Q04DX003 (ip), vehicle: saline with Tween-80). Moreover, where the note is “dose: 6.0 micrograms/kg/injection, schedule: Q01DX009 (ip), vehicle: saline”, the T/C was 128 % of control.

For the compound `CCN(CC)C(=O)C(N)Cc1ccc(OC)c(N(CCCl)CCCl)c1` (configuration not stated), the T/C (dose: 12.5 mg/kg/injection, schedule: Q01DX009 (ip), vehicle: saline) is 132 % of control and the T/C (dose: 12.5 mg/kg/injection, schedule: Q01DX009 (ip), vehicle: suspension in saline) is 132 % of control [5 of 6 alive].

Consider `CCc1c(O)c(C(C)=O)c(S)[nH]c1=O`, for which the survivor count under setting [12] was 6 of 6.

For the compound `Nc1ccc(-c2nc3ccccc3[nH]2)cc1`, the survivor count (dose: 400.0 mg/kg/injection, schedule: Q04DX003 (ip), vehicle: saline) is reported as 0 of 6.

On to `CC(=O)OCC1OC([Se-])C(OC(C)=O)C(OC(C)=O)C1OC(C)=O.N#CCC[PH+](CCC#N)CCC#N.[Au+]` (configuration not stated), for which the T/C under setting [10] was 126 % of control and the T/C under setting [11] is 131 % of control [5 of 6 alive].

With `CCOC1CC(C)(O)C(C(=O)OC)c2cc3c(c(O)c21)C(=O)c1c(O)cc2c(c1C3=O)OC1OC2(C)C(O)C(N(C)C)C1O` (configuration not stated), the T/C (dose: 1.6 mg/kg/injection, schedule: Q01DX009 (ip), vehicle: other) is 141 % of control. Moreover, where the note is “dose: 25.0 mg/kg/injection, schedule: Q01DX009 (ip), vehicle: other”, the survivor count was 6 of 6.

As to `C=CCN(CC=C)C(N)=Nc1ccccc1Cl`, the survivor count is listed as 0 of 6 (dose: 50.0 mg/kg/injection, schedule: Q01DX005 (ip), vehicle: saline); 0 of 6 (dose: 100.0 mg/kg/injection, schedule: Q01DX005 (ip), vehicle: saline); 0 of 6 (dose: 200.0 mg/kg/injection, schedule: Q01DX005 (ip), vehicle: saline).

Take `BrCC1C[n+]2c(cc(-c3ccccc3)cc2-c2ccccc2)S1` (configuration not stated): the survivor count is 0 of 6 (dose: 15.0 mg/kg/injection, schedule: Q01DX005 (ip), vehicle: Klucel (hydroxypropylcellulose) (HPC)); 0 of 6 (dose: 60.0 mg/kg/injection, schedule: Q01DX005 (ip), vehicle: Klucel (hydroxypropylcellulose) (HPC)); 0 of 6 under setting [12]; 0 of 6 under setting [2].

On to `Cc1cc(C(O)(C(F)(F)F)C(F)(F)F)c(N)c(C(O)(C(F)(F)F)C(F)(F)F)c1`, for which the survivor count under setting [4] is on record as 0 of 6.

With `CCCCCCCC(Nc1nncs1)Nc1nncs1`, under setting [10], the survivor count was 6 of 6.

Regarding `O=C1C=C(Nc2ccc(Br)cc2)C(Nc2ccc(Br)cc2)=CC1=O`, the survivor count (dose: 75.0 mg/kg/injection, schedule: Q01DX005 (ip), vehicle: saline with Tween-80) is 6 of 6.

On to `COC1CCC(NS(=O)(=O)c2ccc(N)cc2)[N-]N1.[Ag+]` (configuration not stated), for which the survivor count reads like this: under setting [3], 0 of 6; under setting [1], 0 of 6.

For `O=[N+]([O-])c1ccc(N/N=C/c2ccc(Cl)cc2)nc1`, the survivor count (dose: 25.0 mg/kg/injection, schedule: Q01DX009 (ip), vehicle: Klucel (hydroxypropylcellulose) (HPC)) is 6 of 6; the survivor count (dose: 25.0 mg/kg/injection, schedule: Q01DX009 (ip), vehicle: saline with Tween-80) is 6 of 6; the survivor count (dose: 50.0 mg/kg/injection, schedule: Q01DX009 (ip), vehicle: Klucel (hydroxypropylcellulose) (HPC)) is given as 6 of 6; the survivor count (dose: 50.0 mg/kg/injection, schedule: Q01DX009 (ip), vehicle: saline with Tween-80) is 6 of 6 (2×); the survivor count (dose: 100.0 mg/kg/injection, schedule: Q01DX009 (ip), vehicle: Klucel (hydroxypropylcellulose) (HPC)) was 6 of 6; the survivor count under setting [9] is 6 of 6 (2×).

As for `CCCCN(CCCC)CCNc1ccc(C)c2sc3ccc(Cl)cc3c(=O)c12`, the survivor count under setting [6] is given as 5 of 5, the survivor count under setting [7] was 5 of 5 and the survivor count under setting [8] is recorded as 5 of 5.
